Reference: patent US20240132571A1 (MEDPACTO, published 2024)

Columns and labels:
[1] = molecular target: integrin β3 in which 3HA is tagged at the C-terminus; test: immunoprecipitation
[2] = molecular target: integrin αv in which 3HA is tagged at the C-terminus; test: immunoprecipitation
[3] = molecular target: integrin β3 in which 3HA is tagged at the C-terminus; test: immunoprecipitation after overexpression in 293T or Raw 264.7 cells
[4] = molecular target: integrin αv in which 3HA is tagged at the C-terminus; test: as above
[5] = molecular target: Siglec-15 tagged with 3Flag in C-terminus; test: immunoprecipitation, 293T cells
[6] = molecular target: DC-Stamp tagged with 3Flag in N-terminus; test: immunoprecipitation, 293T cells
[7] = molecular target: Siglec-15 tagged with 3Flag in C-terminus; test: immunoprecipitation (FIG. 12I)
[8] = molecular target: DC-Stamp tagged with 3Flag in N-terminus; test: immunoprecipitation (FIG. 12I)

binding [1]: binds | binding [2]: binds | binding [3]: binds | binding [4]: binds
B1: wild-type TM4SF19 in which 3Flag was tagged at the N-terminus (human TM4SF19) (other)
chain: MVSSPCTQASSRTCSRILGLSLGTAALFAAGANVALLLPNWDVTYLLRGLLGRHAMLGTGLWGGGLMVLTAAILISLMGWRYGCFSKSGLCRSVLTALLSGGLALLGALICFVTSGVALKDGPFCMFDVSSFNQTQAWKYGYPFKDLHSRNYLYDRSLWNSVCLEPSAAVVWHVSLFSALLCISLLQLLLVVVHVINSLLGLFCSLCEK
notes: Overexpressed in 293T cells (for the integrins: 293T or Raw 264.7 cells) and tested by immunoprecipitation; also called 3Flag-hTM4SF19; TM4SF19 wt; not shown: 3Flag tag at the N-terminus

binding [5]: binds | binding [6]: binds | binding [7]: binds | binding [8]: binds
B2: TM4SF19 in which 3HA was tagged at the N-terminus (human TM4SF19, NP_612470.2 isoform 1) (protein, not shown: small tags and cut ends)
chain: B1 chain

Results are given in words; binding and its absence hold for the method and conditions named. Binding can be weak; no strength is given. Tags and fused reporters may be left off the sequences shown. Each block holds one binder with its values, some of them ahead of it.
